The whole screen tested about 1,300 compounds, of which about 65 (5%) were called active.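 How the source made its calls: active means growth inhibition reaching a set limit at one or more tested doses; inactive means the rest.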 The list shows a part of the results. Entries with a potency or affinity are not part of this list.
Experiment: wild-type E. coli BW25113 antibacterial activity – OD615, dose response (AID 638)
Settings: at 100 µM (top of the series)
Outline: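 Assay system: E. coli BW25113 wild type; buffer or medium: Kanamycin-supplemented LB broth; signal: optical density (absorbance) at 615 nm; controls: chloramphenicol 30 µM control; doses: compound concentration series; times: bacterial exposure to compound 20 h at 37 °C; evaluation: IC50 from 4-parameter logistic, bounds fixed 0–100%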

Row | Structure (SMILES) | growth inhibition
1 | Clc1ccc(COC(Cn2ccnc2)c2ccc(Cl)cc2Cl)c(Cl)c1 (centres undefined) | active: 10.9%
2 | Cc1nn(-c2ccccc2)c(Cl)c1C1C(C#N)=C(N)Oc2c1c(=O)oc1ccccc21 (centres undefined) | inactive: 3.35%
3 | N=c1c2c(n(Cc3ccc(Cl)cc3Cl)c3c1CCC3)CCCC2 | inactive: 16%
4 | N=C(N)c1c(O)n(C2CCCCC2)c(=O)n(C2CCCCC2)c1=O | inactive: -4.62%
5 | CCC(=Nc1ccc(OC)cc1OC)c1c(O)n(C2CCCCC2)c(=O)[nH]c1=O | inactive: -2.11%
6 | Cc1ccccc1C1=NCC(=O)N(CC(=O)NCc2ccco2)c2sc3c(c21)CCCC3 | inactive: -2.01%
7 | Clc1ccc(COC(Cn2ccnc2)c2ccc(Cl)cc2Cl)cc1 (centres undefined) | inactive: 4.14%
8 | FC(F)(F)c1ccc2c(c1)nnn2C1CCN(Cc2nnnn2Cc2ccccc2)CC1 | inactive: -4.25%
9 | Cc1ccc(C2C(S(C)(=O)=O)=C(O)C(=O)N2c2ccccc2)cc1 (centres undefined) (tested in a mixture with another compound) | inactive: 5.08%
10 | CCCCN1C(=O)NC(=O)C2(Cc3c(nc4c(C)cccn4c3=O)N3CCc4ccccc4C32)C1=O (centres undefined) | inactive: -3.03%
11 | CCn1nc(-c2ccccc2)nc2c(=O)n(C)c(=O)nc1-2 | inactive: 17.9%
12 | Cc1ccc(CN2C(=O)NC(=O)C3(Cc4c(nc5ccccn5c4=O)N4CCCCCC43)C2=O)cc1 (centres undefined) | inactive: -1.32%
13 | CCOC(=O)C1=C(N)OC2=C(C(=O)CCC2)C12C(=O)N1c3c(ccc(C)c32)C(C)=CC1(C)C (centres undefined) | inactive: 7.09%
14 | CCC(=NCc1ccc2c(c1)OCO2)c1c(O)n(C2CCCCC2)c(=O)[nH]c1=O | inactive: -5.3%
15 | Nc1c(C(=O)NCCc2ccccc2)c2nc3ccccc3nc2n1CCN1CCOCC1 | inactive: -7.05%
16 | CCCCn1c(O)c(C(CC)=NCCc2ccccc2)c(=O)[nH]c1=O | inactive: 1.9%
17 | CCCCCCN=C(CC)c1c(O)n(CCCC)c(=O)[nH]c1=O | inactive: 4.71%
18 | CCOC(=O)c1c(-c2ccc(OC)cc2)oc2ccc(OC(=O)N(C)C)cc12 | inactive: -0.99%
19 | CC(C)CCOC(=O)c1c(N)n(CC2CCCO2)c2nc3ccccc3nc12 (centres undefined) | inactive: 9.75%
20 | Cc1cccn2c(=O)c3c(nc12)N1CCC(Cc2ccccc2)CC1C1(C3)C(=O)N(C)C(=O)N(C)C1=O (centres undefined) | inactive: 7.02%
21 | CN(C)C1(c2nnnn2CCOC(=O)Nc2ccc(Cl)cc2)CCCCC1 | inactive: 4.48%
22 | CCCCCCn1c(N)c(C(=O)NCCN2CCOCC2)c2nc3ccccc3nc21 | inactive: -1%
23 | CCOC(=O)c1c(-c2ccccc2)oc2ccc(OC(=O)N(C)C)cc12 | inactive: 5.66%
24 | CC(C)(C)n1c(O)c(C=Nc2ccc3c(c2)CCC3)c(=O)[nH]c1=O | inactive: -6.7%

Sorted by SMILES length (rising): part of the list above.
Row | Structure (SMILES) | growth inhibition
4 | N=C(N)c1c(O)n(C2CCCCC2)c(=O)n(C2CCCCC2)c1=O | inactive: -4.62%
24 | CC(C)(C)n1c(O)c(C=Nc2ccc3c(c2)CCC3)c(=O)[nH]c1=O | inactive: -6.7%
6 | Cc1ccccc1C1=NCC(=O)N(CC(=O)NCc2ccco2)c2sc3c(c21)CCCC3 | inactive: -2.01%

Source: PubChem BioAssay AID638 (SRMLSC, 2007)
